Experimental data published in patent publication US10716830B2, “ERBB4 activator screening assay” (Children's Hospital Los Angeles, priority 2011, dated 2020).
At least one structure is not confirmed: it was looked up by name or label, or the drawing left a doubt.

What was measured:
YAMC-B4 cells = experiment: Cytokine (TNF plus IFN-γ)-induced apoptosis in cultured colon epithelial cells; type: cell-based, mouse; settings: LY294002 5 μM, TNF plus IFN-γ and NRG4
Text: Conditionally immortalized, non-transformed young adult mouse colon (YAMC) epithelial cells were provided by Dr. Robert Whitehead (Whitehead, R. H., VanEeden, P. E., Noble, M. D., Ataliotis, P., and Jat, P. S. (1993) Proc Natl Acad Sci USA 90, 587-591). These cells express low levels of endogenous ErbB4; YAMC-B4 cells expressing a human ErbB4 construct were generated as previously described (Frey, M. R., Edelblum, K. L., Mullane, M. T., Liang, D., and Polk, D. B. (2009) Gastroenterology 136, 217-226). […]
Cultured mouse colonic epithelial cells expressing ErbB4 (YAMC-B4) cells were exposed to TNF (100 ng/ml) plus interferon (IFN)-γ (150 units/ml), with or without NRG4 (100 ng/ml). After 6 h, the cells were fixed and apoptosis was assessed by immunofluorescence analysis for cleaved caspase-3. When the YAMC-B4 cells were given 100 ng/ml NRG4, cells were protected from apoptosis induced by the 6 h exposure to the cytokine cocktail containing TNF (100 ng/ml) and IFN-γ (150 U/ml), as measured by immunofluorescence analysis for cleaved caspase-3 (FIG. 1B; 2.7-fold decrease with cytokines plus NRG4 vs. cytokines alone, p<0.03).

colon epithelial cells = experiment: Cytokine-induced colon epithelial apoptosis in vivo; parameters: species or system mouse; settings: mice; LY294002 injection 50 μg/kg; TNF plus IFN-γ with NRG4; 24 h
Procedure: All animal use was approved and monitored by the Children's Hospital Los Angeles Institutional Animal Care and Use Committee. […] Cytokines, growth factors, and inhibitors were given by intraperitoneal injection. 24 h after injections, mice were sacrificed and colons collected either for fixation and embedding or for epithelial lysates. For the latter, colons were incubated in Cell Recovery Solution (BD Biosciences, San Jose, Calif.) for 1 h at 4° C.; crypts were released by vigorous shaking and collected by centrifugation, similar to as previously described (Whitehead, R. H., and Robinson, P. S. (2009) American journal of physiology. Gastrointestinal and liver physiology 296, G455-460). Collected crypts were lysed and processed similar to cultured cells as below. […]
For apoptosis analysis in vivo, mice were injected i.p. with PBS/vehicle, TNF (250 μg/kg) plus IFN-γ (250 units/g), NRG4 (100 μg/kg), or NRG4 plus TNF and IFN-γ. […] Apoptosis was detected by in situ oligo ligation (ISOL; EMD Millipore, Billerica, Mass.) staining for DNA fragmentation on sections of paraffin-embedded tissue, and by cleaved caspase-3 western blot on homogenates.
24 hours after injections, colons were harvested. Apoptosis assessed by Western blot analysis for cleaved caspase-3 on isolated epithelial cells determined that NRG4 blocked cytokine-induced apoptosis in vivo (FIG. 3A, B; 3.6-fold decrease, p=0.012).

O=c1cc(N2CCOCC2)oc2c(-c3ccccc3)cccc12 [LY294002, reference compound]
effect of PI3K inhibitor on NRG4's protection from cytokine-induced apoptosis (cleaved caspase-3 immunofluorescence) (YAMC-B4 cells): reversed NRG4's protective effect | effect of PI3K inhibitor on NRG4's blockade of cytokine-induced colon epithelial apoptosis (ISOL stain) (colon epithelial cells): reversed NRG4's blockade
